Results deposited as PubChem BioAssay AID652272 (Drosophila RNAi Screening Center, 2013)

- Assay: 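Genes whose knock-down decreases or increases Hedgehog reporter output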 (primary screen)
- Cells: Drosophila clone 8 (Cl8) cells
- Reagents: long dsRNA against Drosophila genes
- Measured: 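Plate reader light from a firefly reporter under a ptc promoter fragment that responds to Hedgehog, with Renilla light as transfection reference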
- Reading the numbers: firefly Hh reporter signal: higher = more ptc reporter light; Renilla reference signal: higher = more Renilla control light
- Hit rule: 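Hit when the z-score averaged over two replicates is under -2 or over +3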
- Meaning of the calls: active = hit: reporter lowered or raised; inactive = not a hit
In all, the deposit lists about 21,000 reagents; this is a random part of those with a known target gene and a result. In the full data, 503 (2.4%) got an active call. 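Raw plate light values, not normalised; calls rest on replicate z-scores that were not deposited; hits include reporter decreases as well as increases.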 Reagent sequences are not shown. Not given: the amount of reagent, the time to read-out.

no.	gene knocked down	PubChem SID	firefly Hh reporter signal, replicate 1	firefly Hh reporter signal, replicate 2	firefly Hh reporter signal, replicate 3	Renilla reference signal, replicate 1	Renilla reference signal, replicate 2	call
1	Cyt-c1L (Cytochrome c1-like)	SID104194652	1.36e5	1.35e5		2749	3211	inactive
2	lncRNA:CR40053 (long non-coding RNA:CR40053)	SID104200625	7.04e5	2.48e5		45024	5594	inactive
3	ms(3)K81 (male sterile (3) K81)	SID104194538	99739	1.71e5		3905	4912	inactive
4	cort (cortex)	SID104181940	5.24e5	92265		4290	4290	inactive
5	CG31031 (retired record)	SID104193756	54560	2.93e5		13216	5933	inactive
6	CG12134	SID104185901	1.18e5	78661		2659	6852	inactive
7	CG17145	SID104190039	1.07e5	1.20e5		2979	3301	inactive
8	PolD3 (DNA polymerase delta subunit 3)	SID104181753	1.23e5	76376		5408	3543	inactive
9	nwk (nervous wreck)	SID104190231	1.83e5	78044		6992	3180	inactive
10	nwk (nervous wreck)	SID104190234	28801	41136		960	3720	inactive
11	Gnpat (Glyceronephosphate O-acyltransferase)	SID104196752	4.97e5	1.28e5		26661	3501	inactive
12	Tsp39D (Tetraspanin 39D)	SID104182891	1.02e5	68787		2523	6432	inactive
13	eIF2A (eukaryotic translation initiation factor 2A)	SID104191617	97808	99335		4057	4081	inactive
14	Con (Connectin)	SID104188444	67632	72585		2870	2612	inactive
15	Syt1 (Synaptotagmin 1)	SID104179948	6.80e5	3.14e5		32922	11478	inactive
16	Syt1 (Synaptotagmin 1)	SID104179949	7.23e5	3.05e5		38816	12437	inactive
17	Syt1 (Synaptotagmin 1)	SID104179950	5.38e5	2.11e5		28032	9271	inactive
18	Syt1 (Synaptotagmin 1)	SID104180632	1.15e5	70292		6037	3890	inactive
19	CG8531	SID104187001	1.08e5	85003		4269	3457	inactive
20	COX6CL (Cytochrome c oxidase subunit 6C-like)	SID104180687	5.97e5	1.65e5		28114	7731	inactive
21	Neu2 (Neuroectoderm-expressed 2)	SID104191611	1.18e5	1.22e5		4429	3659	inactive

In a second layout: results already given.
| gene knocked down | PubChem SID | firefly Hh reporter signal, replicate 1 | firefly Hh reporter signal, replicate 2 | firefly Hh reporter signal, replicate 3 | Renilla reference signal, replicate 1 | Renilla reference signal, replicate 2 | call |
| --- | --- | --- | --- | --- | --- | --- | --- |
| eIF2A (eukaryotic translation initiation factor 2A) | SID104191617 | 97808 | 99335 | – | 4057 | 4081 | inactive |
| Con (Connectin) | SID104188444 | 67632 | 72585 | – | 2870 | 2612 | inactive |

Next records follow.
no.	gene knocked down	PubChem SID	firefly Hh reporter signal, replicate 1	firefly Hh reporter signal, replicate 2	firefly Hh reporter signal, replicate 3	Renilla reference signal, replicate 1	Renilla reference signal, replicate 2	call
22	CG31211	SID104194745	1.97e5	5.20e5	1.16e5	7069	31843	inactive
23	CG31211	SID104195136	93819	1.14e5		3245	3904	inactive
24	CG14257	SID104194544	1.14e5	1.30e5		3989	4064	inactive
25	Cyp313a3 (Cytochrome P450 313a3)	SID104196418	1.02e5	1.71e5		2872	4327	inactive
26	PGRP-LC (Peptidoglycan recognition protein LC)	SID104188772	80776	1.86e5		2050	7536	inactive
27	PGRP-LC (Peptidoglycan recognition protein LC)	SID104190208	30809	68240	82538	4872	5877	inactive
28	PGRP-LC (Peptidoglycan recognition protein LC)	SID104190209	19046	38178	63909	2706	3853	inactive
29	Hmgcr (HMG Coenzyme A reductase)	SID104196496	4.60e5	1.23e5		21608	3179	inactive
30	CG33552	SID104181343	1.22e5	2.62e5		2705	9632	inactive
31	Isha (Insulator su(Hw) mRNA adaptor)	SID104184248	75171	47568		2876	2277	inactive
32	CG11892	SID104194220	61600	1.55e5		1008	3522	inactive
33	CG12682	SID104197665	62433	1.60e5		1616	6336	inactive
34	betaNACtes2 (Nascent-associated complex beta-subunit-like, testis 2)	SID104199584	82092	2.58e5		2631	10820	inactive
35	UBL3 (Ubiquitin like 3)	SID104200090	88176	1.59e5		2825	6570	inactive
36	CG10418	SID104189512	52592	44903	53011	4824	3459	inactive
37	CG1309	SID104188094	1.81e5	82903		5765	3216	inactive
38	CG3358	SID104184784	1.21e5	1.03e5		4301	3909	inactive
39	CIA30 (Complex I intermediate-associated protein, 30 kDa)	SID104196058	1.11e5	1.29e5		2361	3573	inactive
